Results published in publication PMC10366548.
Results are given in words; binding and its absence hold for the method and conditions named. In cells and extracts the contact can be indirect. Some results given as binding are weak or reduced against the parent protein; the word gives no strength.

By UniProt entry, the sequences of proteins in these tests, tags left out.
UniProt Q91738: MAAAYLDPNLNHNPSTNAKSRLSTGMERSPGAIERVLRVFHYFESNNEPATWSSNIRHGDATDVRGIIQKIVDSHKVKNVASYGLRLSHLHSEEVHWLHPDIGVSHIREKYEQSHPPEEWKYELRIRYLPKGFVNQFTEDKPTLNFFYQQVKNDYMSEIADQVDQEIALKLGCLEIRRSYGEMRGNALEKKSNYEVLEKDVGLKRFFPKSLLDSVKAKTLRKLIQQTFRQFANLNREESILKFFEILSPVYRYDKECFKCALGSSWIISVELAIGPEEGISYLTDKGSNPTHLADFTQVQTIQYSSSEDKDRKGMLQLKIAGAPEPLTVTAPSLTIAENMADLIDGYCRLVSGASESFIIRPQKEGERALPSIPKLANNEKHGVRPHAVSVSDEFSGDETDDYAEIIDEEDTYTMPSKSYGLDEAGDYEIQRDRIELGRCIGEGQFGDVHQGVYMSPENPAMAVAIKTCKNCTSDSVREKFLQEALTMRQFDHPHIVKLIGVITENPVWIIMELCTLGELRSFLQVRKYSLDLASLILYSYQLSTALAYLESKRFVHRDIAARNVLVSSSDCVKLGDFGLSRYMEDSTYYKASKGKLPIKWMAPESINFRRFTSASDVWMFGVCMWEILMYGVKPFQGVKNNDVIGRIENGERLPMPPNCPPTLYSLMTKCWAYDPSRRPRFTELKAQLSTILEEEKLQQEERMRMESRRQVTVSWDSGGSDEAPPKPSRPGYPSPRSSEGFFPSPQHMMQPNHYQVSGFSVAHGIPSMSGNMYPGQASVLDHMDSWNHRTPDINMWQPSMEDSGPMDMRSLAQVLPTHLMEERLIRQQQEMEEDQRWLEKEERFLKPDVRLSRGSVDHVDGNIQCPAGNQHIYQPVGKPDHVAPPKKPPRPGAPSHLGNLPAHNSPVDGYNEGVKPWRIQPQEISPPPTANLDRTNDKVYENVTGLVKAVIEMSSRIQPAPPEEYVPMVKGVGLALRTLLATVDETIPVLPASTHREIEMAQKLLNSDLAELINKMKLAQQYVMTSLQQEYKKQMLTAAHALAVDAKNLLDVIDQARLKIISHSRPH

Assays:
[1] = biological target: human epidermal growth factor (EGF) receptor (EGFR) (human) (UniProt P00533); assay: co-IP; anti-EGFR immunoprecipitation (Protein A Sepharose, 4 °C, PYT buffer with 500 mM NaCl, 0.05% SDS, 0.5% Triton X-100) from defolliculated (DE) oocytes expressing EGFR, injected with GST-Grb7, stimulated with 5 nM EGF; Grb7 is tyrosine-phosphorylated here; also with 100 μM Thiamet G or 15 μM OSMI-4
[2] = biological target: human epidermal growth factor (EGF) receptor (EGFR) (human) (UniProt P00533); assay: condition: only in oocytes with their follicular cells (FC); co-IP; anti-EGFR immunoprecipitation (Protein A Sepharose, 4 °C, PYT buffer) from oocytes with their follicular cells (FC) expressing EGFR, injected with GST-Grb7, stimulated with 5 nM EGF; Grb7 is O-GlcNAcylated here; also with 100 μM Thiamet G
[3] = biological target: human epidermal growth factor (EGF) receptor (EGFR) (human) (UniProt P00533); assay: co-IP; anti-EGFR immunoprecipitation from DE oocytes expressing EGFR, injected with GST-Grb7 (20 ng) with or without 60 ng SH2 domain of Grb7 as competitor, 5 nM EGF

Row | Substance | binding [1] | binding [2] | binding [3]
1 | focal adhesion kinase (FAK) (from UniProt Q91738 1-1068) (enzyme) | binds | no binding | –
2 | SH2 domain of Grb7, GST fusion (from UniProt Q14451 431-527) (domain or fragment) | – | – | binds
